The target in the assay is T1, DDK‐FBXO16 (human) (UniProt Q8IX29).
T1 sequence: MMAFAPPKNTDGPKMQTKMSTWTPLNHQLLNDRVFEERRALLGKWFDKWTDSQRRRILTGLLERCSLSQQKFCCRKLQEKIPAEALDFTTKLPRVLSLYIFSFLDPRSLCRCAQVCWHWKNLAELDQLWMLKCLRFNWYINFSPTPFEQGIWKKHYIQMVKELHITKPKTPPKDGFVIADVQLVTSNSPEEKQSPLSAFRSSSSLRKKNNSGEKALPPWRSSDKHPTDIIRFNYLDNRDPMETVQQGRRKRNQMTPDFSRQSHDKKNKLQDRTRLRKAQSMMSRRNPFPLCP
Briefly: affinity purification with mass spectrometry; MCF7 cells expressing vector or DDK‐FBXO16, 5 μM MG132 for 6 h; anti‐DDK immunoprecipitation, elution with 8 M urea and 0.5 M Tris pH 7.4, LC–MS/MS (Orbitrap fusion).

Protein sequences, listed by entry. Tags and fused reporters are not part of them.
UniProt P35222: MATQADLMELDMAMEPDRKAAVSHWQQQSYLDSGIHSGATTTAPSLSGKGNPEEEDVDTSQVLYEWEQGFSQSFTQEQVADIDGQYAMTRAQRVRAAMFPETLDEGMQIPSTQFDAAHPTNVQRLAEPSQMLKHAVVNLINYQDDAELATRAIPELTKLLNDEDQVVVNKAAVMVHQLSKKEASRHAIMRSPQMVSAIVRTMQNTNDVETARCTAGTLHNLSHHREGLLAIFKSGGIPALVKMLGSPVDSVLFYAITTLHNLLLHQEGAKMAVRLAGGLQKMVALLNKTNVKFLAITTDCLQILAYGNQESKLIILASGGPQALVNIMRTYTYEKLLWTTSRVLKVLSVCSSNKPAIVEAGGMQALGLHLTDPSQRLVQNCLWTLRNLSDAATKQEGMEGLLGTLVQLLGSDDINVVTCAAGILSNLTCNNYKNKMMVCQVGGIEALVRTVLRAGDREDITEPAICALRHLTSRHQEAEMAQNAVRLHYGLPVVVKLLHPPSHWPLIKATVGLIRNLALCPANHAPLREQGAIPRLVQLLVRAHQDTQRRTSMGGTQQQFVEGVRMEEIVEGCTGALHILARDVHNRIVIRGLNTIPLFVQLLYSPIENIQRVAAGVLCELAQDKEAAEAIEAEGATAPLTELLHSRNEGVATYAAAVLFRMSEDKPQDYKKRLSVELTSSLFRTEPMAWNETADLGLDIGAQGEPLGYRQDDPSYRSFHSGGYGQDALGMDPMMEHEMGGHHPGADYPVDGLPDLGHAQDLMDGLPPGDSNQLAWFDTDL

No constants are given. Whether binding was seen depends on the method and setting. In cells and extracts the contact can be indirect. A yes stands for co-enrichment or nearness to the bait. Other partners may have been found.

Regarding “β‐catenin (endogenous) (from UniProt P35222 1-781)”, the binding result is “binds”.

For the origin of these results see publication PMC6619347.
